Here are results for 1 substance from PMC12127886, “Mapping Hsp104 interactions using cross‐linking mass spectrometry” (FEBS Open Bio, 2025).

Protein sequences, listed by entry. Tags and fused reporters are not part of them. Lines headed by an entry give the natural chain unless they say otherwise; changes in a name come on top. Residues count along the entry.
UniProt Q8NBP7, residues 153-692: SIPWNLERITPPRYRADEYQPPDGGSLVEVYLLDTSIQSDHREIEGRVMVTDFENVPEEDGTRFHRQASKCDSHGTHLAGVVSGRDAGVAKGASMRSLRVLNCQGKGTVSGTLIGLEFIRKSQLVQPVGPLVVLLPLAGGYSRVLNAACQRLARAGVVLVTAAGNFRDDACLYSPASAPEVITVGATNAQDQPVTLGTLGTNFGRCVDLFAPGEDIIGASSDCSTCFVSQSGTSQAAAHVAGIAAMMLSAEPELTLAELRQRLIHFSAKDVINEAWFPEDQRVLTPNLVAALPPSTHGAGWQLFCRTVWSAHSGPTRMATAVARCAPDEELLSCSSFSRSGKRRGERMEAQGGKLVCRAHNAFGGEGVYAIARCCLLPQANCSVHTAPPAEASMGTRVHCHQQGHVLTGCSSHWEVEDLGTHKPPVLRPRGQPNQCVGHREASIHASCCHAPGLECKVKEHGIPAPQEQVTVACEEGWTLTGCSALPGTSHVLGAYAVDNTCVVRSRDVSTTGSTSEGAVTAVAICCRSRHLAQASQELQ

These are yes or no findings as the source states them, for the method shown. In cells and extracts the contact can be indirect. A result given as binding can be weak or reduced; the word gives no strength.

The assay addresses Thermochaetoides thermophila TtHsp104 full length (Thermochaetoides thermophila). The assay can be described thus: cross-linking; co-purified Hsp104fl:PCSK9 complex, 0.3 mg/mL in 20 mM HEPES-KOH 7.57, 100 mM KCl, 2 mM MgCl2, 2 mM ATP, 4 mM DTT; DMTMM or ADH/DMTMM; SDS/PAGE and LC-MS/MS (xQuest), Id-score cutoff 15; DSS data excluded; both purified.

Take “PCSK9ΔN (153–692) (from UniProt Q8NBP7 153-692) (domain or fragment)”: the binding entry is “binds”.
